# Results as given in PubChem BioAssay AID493014 (National Center for Advancing Translational Sciences (NCATS), 2011).
# The other results are listed elsewhere or left out. The main result of the screen is listed elsewhere. These columns were measured beside it and carry no call. Most of these compounds were active or inconclusive in the main read-out, so they are no random draw. The note in brackets gives the kind of curve behind each potency; many fits are weak.
# Assay: qHTS Assay to Find Inhibitors of Chronic Active B-Cell Receptor Signaling
# Conditions: ABC-DLBCL IkBa-CBG/CBR reporter, luminescence ratio (green luciferase fused to IkBa over red control in TMD8 lymphoma cells), 4 h
# Outline: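 Doxycycline induced both beetle luciferases in TMD8 lymphoma cells; IKK-driven degradation limits the IkappaBalpha-fused green signal, while red luminescence normalises for cell number and nonspecific effects. Compounds tested up to 46 uM, 4 hrs.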
# [1] = measured here: CBR red luminescence, cell number
# [2] = measured here: IkBa-CBG green luminescence
Compound,AC50 [1],AC50 [2]
S=c1nc(-c2ccccc2)c(-c2ccccc2)n[nH]1,"3.98 µM [rising, single point]",–
Cc1ccc(CN2CCN(/N=C/C=C/c3ccccc3[N+](=O)[O-])CC2)cc1,"22.4 µM [falling, single point]",–
Cc1cccc(CC(C)NC(=O)c2cc(COc3ccc(C)c(C)c3)on2)n1 (stereo not drawn),"25.1 µM [falling, single point]",–
COc1ccc2cc(C(C)C(=O)OC(C)C)ccc2c1 (stereo not drawn),"5.8 µM [rising, full curve]",–
Cc1nc(-c2ccc(C(=O)Nc3cccc(F)c3)cc2)cs1,"8.91 µM [falling, partial curve]",–
COc1ccc2oc(=O)c(C(=O)Nc3cccc(C)c3)cc2c1,"0.1 µM [falling, full curve, poor fit]",–
Cc1csc(NC(=O)/C=C/c2ccco2)n1,"9.2 µM [falling, partial curve]",–
O=C(COC(=O)c1ccc(-n2cnnn2)cc1)c1ccc(Br)cc1,"18.4 µM [falling, partial curve, poor fit]",–
C/C(CC(=O)NC1CCCCC1)=N\NC(=O)c1ccc(Br)cc1,"11.2 µM [falling, partial curve]",–
COCCn1c(=O)[nH]c2cc(C(=O)OC)ccc2c1=O,"0.316 µM [falling, full curve, poor fit]",–
Fc1ccccc1NC(=S)N1CCN(Cc2ccccc2)CC1,"18.4 µM [rising, partial curve, poor fit]",–
CCCCN(C(=O)c1cc2c(s1)CCCC2)c1c(N)n(CCC)c(=O)[nH]c1=O,"29.1 µM [rising, single point]",–
COC(=O)CCC(=O)c1oc2ccc(Br)cc2c1N,"1.03 µM [rising, full curve, poor fit]",–
CCOc1ccc(/C=C/C2=CC(C)(C)NC(=S)N2)cc1,"10 µM [falling, partial curve]",–
CC(C)(C)c1ccc(C(=O)Nc2cccc(S(=O)(=O)NC3=NCCC3)c2)cc1,"18.4 µM [falling, partial curve]",–
Cc1ncc(CSCC(=O)Nc2cc(C(F)(F)F)ccc2Cl)c(CO)c1O,"0.447 µM [falling, full curve]",–
COc1ccc2cc(C(=O)Nc3ccc(O)cc3)sc(=O)c2c1OC,"5.17 µM [falling, partial curve]",–
Cc1cc(-c2ccccc2)n(-c2ccc(C(=O)N3CCN(c4ncccn4)CC3)cc2)n1,"6.51 µM [rising, single point]","4.11 µM [falling, single point]"
O=C(Nc1cccc(Cl)c1)c1ccc2c(=O)n3c(nc2c1)CCCCC3,"0.708 µM [rising, partial curve]",–
Nc1nc(N)nc(-c2ccccc2)n1,"18.4 µM [falling, single point]",–

Compound,AC50 [1],AC50 [2]
Cc1nonc1C(=O)N/N=C/c1cccc(O)c1,"18.4 µM [falling, single point]",–
O=S(=O)(NCC1CCCO1)c1ccc(S(=O)(=O)N2CCc3ccccc3C2)cc1 (stereo not drawn),"10.3 µM [rising, partial curve, poor fit]",–
CCC(C)N(C(=O)COC(=O)/C=C/c1ccc(O)c(OC)c1)C1CCS(=O)(=O)C1 (stereo not drawn),"29.1 µM [falling, partial curve, poor fit]",–
O=C(CSc1nc(=O)n2ccccc2n1)NCc1ccccc1Cl,"11.6 µM [falling, partial curve, poor fit]",–
Cc1ccnc(Sc2ncccc2[N+](=O)[O-])n1,"20.6 µM [falling, single point]",–
COc1ccccc1-n1cnnc1SCC(=O)Nc1cc(C(C)(C)C)nn1-c1ccccc1,"28.2 µM [falling, single point]",–
CCOC(=O)C1CCN(c2c(C(=O)c3ccccc3)cnc3ccc(Cl)cc23)CC1,"17.8 µM [rising, single point]",–
CC1(C)Cc2ccccc2/C(=C/C(=O)c2ccccc2)N1,"12.6 µM [rising, partial curve]",–
CCS(=O)(=O)Nc1cccc(-c2cc(-c3ccccc3)c3cc(C)ccc3n2)c1,"20.6 µM [falling, partial curve, poor fit]",–
Cc1csc(NC(=O)CSCC(=O)O)c1-c1nc2ccccc2s1,"15.8 µM [falling, partial curve, poor fit]","11.2 µM [rising, partial curve, poor fit]"
NS(=O)(=O)c1ccc(NC(=O)c2ccc(F)cc2F)c(NC(=O)c2ccc(F)cc2F)c1,–,"11.2 µM [falling, partial curve, poor fit]"
CC(C)c1ccc(/C=N/NC(=O)c2cccc(Cl)c2)cc1,"32.6 µM [falling, partial curve, poor fit]",–
Cc1ccc(CN2C(=O)C[C@@H](NC(=O)OCC3c4ccccc4-c4ccccc43)C/C=C\C2c2ccc(C)cc2)cc1 (stereo partly drawn),"29.1 µM [rising, single point]","23.1 µM [falling, partial curve, poor fit]"
O=C(CSCC(=O)Nc1ccccc1)N/N=C/c1c(O)ccc2ccccc12,"15.8 µM [falling, single point]",–
C=CCn1c(=O)c(C(=O)Nc2ccccc2S(N)(=O)=O)c(O)c2ccccc21,"14.1 µM [falling, single point]",–
CCCC(=O)Nc1nc2ccc(S(=O)(=O)N3CCCCC3)cc2s1,"20.6 µM [rising, single point]","4.11 µM [falling, partial curve, poor fit]"
O=C(CSc1ccc2ccccc2n1)c1ccc2c(c1)OCO2,"0.92 µM [falling, full curve, poor fit]",–
CCCNC(=O)c1ccc2c(c1)N(Cc1cccc(C)c1)C(=O)c1ccccc1S2,"7.94 µM [falling, partial curve, poor fit]",–
CC1CC(Nc2ccccc2)c2ccccc2N1C(=O)c1ccco1 (stereo not drawn),"12.6 µM [falling, partial curve, poor fit]",–

# An excerpt from above in order of SMILES length, ascending.
Compound,AC50 [1],AC50 [2]
COc1ccc2cc(C(C)C(=O)OC(C)C)ccc2c1 (stereo not drawn),"5.8 µM [rising, full curve]",–
C=CCn1c(=O)c(C(=O)Nc2ccccc2S(N)(=O)=O)c(O)c2ccccc21,"14.1 µM [falling, single point]",–
CCCCN(C(=O)c1cc2c(s1)CCCC2)c1c(N)n(CCC)c(=O)[nH]c1=O,"29.1 µM [rising, single point]",–
